From PubChem BioAssay AID256 (DTP/NCI, 2004)
The list shows only some results of the screen, not a fair sample: it gathers tests that were run many times, whatever their T/C, doses with no T/C, and many T/C values between a quarter and a half above the control. Further doses and runs are listed elsewhere. T/C is the treated group as % of the vehicle group. Some entries give survivors of the animals treated and no T/C: the source holds a T/C of zero for them, seemingly a mark for toxic or unscored doses. Some doses without a T/C left all or most animals alive at the check, yet need not have been tolerated: the source hardly ever lists a survival T/C far under the control, and the zero likely stands for such cases as well. Counts of survivors are from the toxicity check (mostly the fifth day) where no day follows; animals may have died later. Schedules are NCI's codes, read here as Q, the interval in days (D) or hours (H), X, the number of doses. For survival time, this PubChem deposit counts one and a half times the control or more as active, and values a quarter to a half above the control carry no call in these data; other NCI protocols may use other cut-offs.

Test system: CD2F1 mice, L1210 leukemia ip, survival T/C
Assay: NCI In Vivo Anticancer Drug Screen. Data for tumor model L1210 Leukemia (intraperitoneal) in CD2F1 (CDF1) mice
Details: T/C endpoint: mean survival time, higher T/C = longer survival
Procedure, shortened: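 Mice carrying a transplanted tumor received test compound or vehicle alone. The value is the measurement in the treated group divided by that in the vehicle-treated control group.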

## C=C1C(=O)OC2CC(C)C3C=CC(=O)C3CC12 (configuration not stated)
dose: 2.0 mg/kg/injection, schedule: Q01DX009 (ip), vehicle: Klucel (hydroxypropylcellulose) (HPC)
  survivor count: 2 of 6
dose: 4.69 mg/kg/injection, schedule: Q01DX009 (ip), vehicle: Klucel (hydroxypropylcellulose) (HPC)
  survivor count: 1 of 6
dose: 9.38 mg/kg/injection, schedule: Q01DX009 (ip), vehicle: Klucel (hydroxypropylcellulose) (HPC)
  survivor count: 0 of 6
dose: 18.75 mg/kg/injection, schedule: Q01DX009 (ip), vehicle: Klucel (hydroxypropylcellulose) (HPC)
  survivor count: 0 of 6
dose: 37.5 mg/kg/injection, schedule: Q01DX009 (ip), vehicle: Klucel (hydroxypropylcellulose) (HPC)
  survivor count: 3 of 6
dose: 75.0 mg/kg/injection, schedule: Q01DX009 (ip), vehicle: Klucel (hydroxypropylcellulose) (HPC)
  survivor count: 0 of 6

## O=C(c1ccccc1)C1C(c2ccccc2)C2(CCCCC2=O)C(c2ccccc2)CC1(O)c1ccccc1 (configuration not stated)
dose: 200.0 mg/kg/injection, schedule: Q01DX001 (ip), vehicle: Klucel (hydroxypropylcellulose) (HPC)
  survivor count: 3 of 3
dose: 400.0 mg/kg/injection, schedule: Q01DX001 (ip), vehicle: Klucel (hydroxypropylcellulose) (HPC)
  survivor count: 3 of 3

## NCCS/C=C(\Br)C(=O)OCc1ccc(Br)cc1
dose: 400.0 mg/kg/injection, schedule: Q04DX003 (ip), vehicle: saline with Tween-80
  survivor count: 0 of 6

## CC(C)(O)C(=O)N/N=C/c1ccc(Cl)cc1
dose: 400.0 mg/kg/injection, schedule: Q01DX009 (ip), vehicle: saline with Tween-80
  survivor count: 0 of 6

## CC1(C)CN(c2ccccc2)N(CO)C1=O
dose: 100.0 mg/kg/injection, schedule: Q04DX003 (ip), vehicle: saline
  survivor count: 0 of 3
dose: 200.0 mg/kg/injection, schedule: Q04DX003 (ip), vehicle: saline
  survivor count: 0 of 3
dose: 400.0 mg/kg/injection, schedule: Q04DX003 (ip), vehicle: saline
  survivor count: 0 of 3

## CC1(C)N=C(N)N=C(N)N1c1ccc(CCCCc2ccc(S(=O)(=O)F)cc2)c(Cl)c1
dose: 7.5 mg/kg/injection, schedule: Q01DX009 (ip), vehicle: saline
  T/C: 128 % of control
dose: 15.0 mg/kg/injection, schedule: Q01DX009 (ip), vehicle: saline
  T/C: 128 % of control
dose: 30.0 mg/kg/injection, schedule: Q01DX009 (ip), vehicle: saline with Tween-80
  T/C: 128 % of control
dose: 30.0 mg/kg/injection, schedule: Q01DX009 (ip), vehicle: saline
  T/C: 131 % of control

## O=S1CCCO1 (configuration not stated)
dose: 37.5 mg/kg/injection, schedule: Q04DX003 (ip), vehicle: saline
  survivor count: 5 of 6
dose: 75.0 mg/kg/injection, schedule: Q04DX003 (ip), vehicle: saline
  survivor count: 0 of 6

## COc1ccc(-n2c(=O)c(N=Nc3ccccc3)c(O)n(-c3ccccc3OC)c2=S)cc1
dose: 100.0 mg/kg/injection, schedule: Q01DX001 (ip), vehicle: saline with Tween-80
  survivor count: 3 of 6
dose: 200.0 mg/kg/injection, schedule: Q01DX001 (ip), vehicle: saline with Tween-80
  survivor count: 3 of 6
dose: 400.0 mg/kg/injection, schedule: Q01DX001 (ip), vehicle: saline with Tween-80
  survivor count: 0 of 6
